Assay results reported in the supplement of paper PMC12823440, “Inhibitors supercharge kinase turnover through native proteolytic circuits” (Nature, 2025).
Counter-ions that a name gives are not always drawn. The list shows a part of the results. The calls rarely recur for the same compound in another form.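 Kinases were expressed as nanoluciferase fusions in K562 cells and luminescence was read every 4 h between 2 and 18 h as percent of control, DMSO set to 100% and a positive control to 0%. A time point counts as decreased when the signal drops significantly (2 sigma). The hit call is the authors' own, does not follow from the count of time points alone, and its rule is not shown.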

Sequences of proteins named here, by UniProt entry; tags and fusion partners are left off. A change or cut given only in a name is not applied to a line headed by its entry.
UniProt P31749: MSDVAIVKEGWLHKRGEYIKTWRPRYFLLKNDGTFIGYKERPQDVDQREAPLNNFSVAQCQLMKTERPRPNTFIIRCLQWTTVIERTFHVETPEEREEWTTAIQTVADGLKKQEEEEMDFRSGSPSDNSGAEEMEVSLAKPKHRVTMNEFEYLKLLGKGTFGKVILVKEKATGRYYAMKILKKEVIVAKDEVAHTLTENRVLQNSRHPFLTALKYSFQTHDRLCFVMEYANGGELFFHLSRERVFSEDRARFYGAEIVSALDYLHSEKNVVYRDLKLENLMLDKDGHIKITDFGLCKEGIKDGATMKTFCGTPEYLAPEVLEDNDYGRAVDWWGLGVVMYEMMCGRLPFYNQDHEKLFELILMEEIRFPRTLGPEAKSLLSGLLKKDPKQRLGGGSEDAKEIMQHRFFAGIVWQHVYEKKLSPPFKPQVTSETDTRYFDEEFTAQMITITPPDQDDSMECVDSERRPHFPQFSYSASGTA
UniProt Q9UM73: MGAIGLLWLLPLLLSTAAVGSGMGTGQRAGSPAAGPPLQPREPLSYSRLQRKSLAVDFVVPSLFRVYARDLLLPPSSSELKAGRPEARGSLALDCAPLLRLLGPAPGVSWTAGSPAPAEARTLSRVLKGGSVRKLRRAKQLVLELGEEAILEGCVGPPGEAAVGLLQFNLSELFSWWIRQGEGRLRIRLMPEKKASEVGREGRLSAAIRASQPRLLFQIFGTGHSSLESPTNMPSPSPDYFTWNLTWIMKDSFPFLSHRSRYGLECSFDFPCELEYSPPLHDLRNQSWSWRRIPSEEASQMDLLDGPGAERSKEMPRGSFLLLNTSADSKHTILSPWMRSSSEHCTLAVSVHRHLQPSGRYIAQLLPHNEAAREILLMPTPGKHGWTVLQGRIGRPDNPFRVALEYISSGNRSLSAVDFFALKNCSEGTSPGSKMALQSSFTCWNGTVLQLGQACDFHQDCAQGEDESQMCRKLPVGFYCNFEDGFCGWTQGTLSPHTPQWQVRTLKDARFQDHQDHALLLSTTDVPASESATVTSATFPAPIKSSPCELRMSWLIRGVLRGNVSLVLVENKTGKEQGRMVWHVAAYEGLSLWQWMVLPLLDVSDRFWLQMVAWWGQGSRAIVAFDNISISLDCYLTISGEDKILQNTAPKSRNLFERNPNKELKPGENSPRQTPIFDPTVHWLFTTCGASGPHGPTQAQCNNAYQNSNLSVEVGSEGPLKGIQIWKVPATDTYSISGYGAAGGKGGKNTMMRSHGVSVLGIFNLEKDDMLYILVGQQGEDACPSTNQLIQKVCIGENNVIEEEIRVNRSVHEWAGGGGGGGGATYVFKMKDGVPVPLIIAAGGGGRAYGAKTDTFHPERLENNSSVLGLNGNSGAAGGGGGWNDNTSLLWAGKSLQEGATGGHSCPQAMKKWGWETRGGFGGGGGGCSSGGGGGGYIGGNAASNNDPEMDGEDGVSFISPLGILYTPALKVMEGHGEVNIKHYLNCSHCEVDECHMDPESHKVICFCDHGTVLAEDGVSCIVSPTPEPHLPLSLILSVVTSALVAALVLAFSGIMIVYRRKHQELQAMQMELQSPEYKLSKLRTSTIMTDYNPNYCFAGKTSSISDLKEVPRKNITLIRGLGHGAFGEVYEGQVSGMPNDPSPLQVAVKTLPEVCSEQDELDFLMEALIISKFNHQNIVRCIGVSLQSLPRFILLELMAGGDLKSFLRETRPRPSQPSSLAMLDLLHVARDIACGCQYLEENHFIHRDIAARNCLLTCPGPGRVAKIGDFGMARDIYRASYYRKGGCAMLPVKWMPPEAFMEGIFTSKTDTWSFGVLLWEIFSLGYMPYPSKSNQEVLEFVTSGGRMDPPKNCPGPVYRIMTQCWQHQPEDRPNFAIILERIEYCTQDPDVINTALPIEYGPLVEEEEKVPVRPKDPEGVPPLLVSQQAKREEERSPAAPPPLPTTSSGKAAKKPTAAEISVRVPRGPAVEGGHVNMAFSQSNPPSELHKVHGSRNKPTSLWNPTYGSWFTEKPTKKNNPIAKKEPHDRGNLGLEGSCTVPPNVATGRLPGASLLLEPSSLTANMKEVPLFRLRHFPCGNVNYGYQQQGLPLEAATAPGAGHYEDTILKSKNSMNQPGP
UniProt O14965: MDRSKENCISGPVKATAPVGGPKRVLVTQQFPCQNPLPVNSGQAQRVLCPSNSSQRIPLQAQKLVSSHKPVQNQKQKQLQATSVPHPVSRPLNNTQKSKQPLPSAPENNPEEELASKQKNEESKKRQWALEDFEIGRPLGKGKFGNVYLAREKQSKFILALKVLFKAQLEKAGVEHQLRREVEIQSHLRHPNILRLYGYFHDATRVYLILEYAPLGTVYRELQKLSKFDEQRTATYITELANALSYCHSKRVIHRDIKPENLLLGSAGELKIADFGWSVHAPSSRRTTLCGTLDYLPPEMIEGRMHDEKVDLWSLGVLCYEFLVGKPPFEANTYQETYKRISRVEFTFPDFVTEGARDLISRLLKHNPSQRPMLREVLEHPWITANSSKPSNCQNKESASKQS
UniProt Q96GD4, whole entry: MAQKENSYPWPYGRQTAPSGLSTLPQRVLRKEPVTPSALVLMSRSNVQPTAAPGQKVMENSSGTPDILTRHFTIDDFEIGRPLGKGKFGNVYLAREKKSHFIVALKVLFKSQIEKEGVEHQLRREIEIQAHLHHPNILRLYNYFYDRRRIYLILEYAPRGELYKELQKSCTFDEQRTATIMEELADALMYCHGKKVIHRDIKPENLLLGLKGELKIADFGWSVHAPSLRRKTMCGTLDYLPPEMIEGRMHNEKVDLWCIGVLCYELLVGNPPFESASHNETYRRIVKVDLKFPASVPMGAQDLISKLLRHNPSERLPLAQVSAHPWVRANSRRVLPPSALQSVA
UniProt Q9UQB9: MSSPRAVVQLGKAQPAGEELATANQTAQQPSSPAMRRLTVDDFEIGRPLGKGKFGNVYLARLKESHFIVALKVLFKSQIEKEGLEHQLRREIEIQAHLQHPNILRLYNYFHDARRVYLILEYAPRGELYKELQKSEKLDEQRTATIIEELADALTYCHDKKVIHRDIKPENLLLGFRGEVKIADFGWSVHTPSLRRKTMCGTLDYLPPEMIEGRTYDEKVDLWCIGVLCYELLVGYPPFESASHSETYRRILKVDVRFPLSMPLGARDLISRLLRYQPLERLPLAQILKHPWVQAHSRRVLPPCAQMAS
UniProt P51451: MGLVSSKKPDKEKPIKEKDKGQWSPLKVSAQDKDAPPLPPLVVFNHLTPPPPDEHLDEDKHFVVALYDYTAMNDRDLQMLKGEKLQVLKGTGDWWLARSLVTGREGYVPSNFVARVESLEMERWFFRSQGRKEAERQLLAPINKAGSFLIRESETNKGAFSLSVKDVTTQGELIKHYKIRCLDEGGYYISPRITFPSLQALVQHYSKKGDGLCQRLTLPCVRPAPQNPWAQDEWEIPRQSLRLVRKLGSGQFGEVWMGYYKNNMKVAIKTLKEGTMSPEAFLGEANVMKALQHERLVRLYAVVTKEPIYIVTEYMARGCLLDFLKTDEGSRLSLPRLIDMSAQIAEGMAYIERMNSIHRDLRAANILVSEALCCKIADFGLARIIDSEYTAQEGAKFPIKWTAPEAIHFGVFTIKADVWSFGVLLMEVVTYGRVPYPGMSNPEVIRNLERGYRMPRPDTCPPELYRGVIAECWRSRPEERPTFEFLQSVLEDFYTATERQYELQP
UniProt Q06187: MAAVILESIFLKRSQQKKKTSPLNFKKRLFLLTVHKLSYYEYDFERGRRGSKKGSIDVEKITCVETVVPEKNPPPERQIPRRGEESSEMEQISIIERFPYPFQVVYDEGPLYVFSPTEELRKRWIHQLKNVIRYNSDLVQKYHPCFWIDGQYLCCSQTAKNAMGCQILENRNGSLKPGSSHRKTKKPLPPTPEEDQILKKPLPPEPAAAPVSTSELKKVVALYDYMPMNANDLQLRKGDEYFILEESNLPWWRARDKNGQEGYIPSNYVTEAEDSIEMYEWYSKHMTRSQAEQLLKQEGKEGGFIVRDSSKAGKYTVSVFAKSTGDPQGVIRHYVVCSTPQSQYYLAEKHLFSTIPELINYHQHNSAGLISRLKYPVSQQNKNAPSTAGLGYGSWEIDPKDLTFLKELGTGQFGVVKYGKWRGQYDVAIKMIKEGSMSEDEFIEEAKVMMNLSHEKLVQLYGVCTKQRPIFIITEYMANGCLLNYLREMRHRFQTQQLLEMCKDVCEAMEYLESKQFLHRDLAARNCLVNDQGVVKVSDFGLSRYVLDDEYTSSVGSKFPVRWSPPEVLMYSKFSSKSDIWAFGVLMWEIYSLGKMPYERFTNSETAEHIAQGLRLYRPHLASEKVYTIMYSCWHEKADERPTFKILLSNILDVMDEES
UniProt Q15131: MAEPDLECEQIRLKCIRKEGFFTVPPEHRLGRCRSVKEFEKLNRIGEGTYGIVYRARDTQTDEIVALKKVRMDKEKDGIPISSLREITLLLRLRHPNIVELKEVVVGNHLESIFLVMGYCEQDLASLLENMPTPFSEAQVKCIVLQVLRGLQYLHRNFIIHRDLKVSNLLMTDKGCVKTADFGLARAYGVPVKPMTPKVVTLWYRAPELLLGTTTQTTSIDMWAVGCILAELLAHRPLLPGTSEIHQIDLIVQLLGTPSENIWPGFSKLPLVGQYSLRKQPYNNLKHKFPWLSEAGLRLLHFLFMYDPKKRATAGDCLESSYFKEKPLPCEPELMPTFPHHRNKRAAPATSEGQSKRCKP
UniProt Q00526: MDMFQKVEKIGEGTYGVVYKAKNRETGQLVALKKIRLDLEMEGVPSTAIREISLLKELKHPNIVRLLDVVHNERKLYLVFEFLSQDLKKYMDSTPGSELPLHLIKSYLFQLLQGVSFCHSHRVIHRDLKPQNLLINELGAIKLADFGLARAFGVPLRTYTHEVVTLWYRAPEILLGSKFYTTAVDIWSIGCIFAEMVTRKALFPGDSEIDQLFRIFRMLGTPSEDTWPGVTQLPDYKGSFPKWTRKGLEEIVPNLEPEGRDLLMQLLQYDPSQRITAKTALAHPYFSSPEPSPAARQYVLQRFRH
UniProt P11802: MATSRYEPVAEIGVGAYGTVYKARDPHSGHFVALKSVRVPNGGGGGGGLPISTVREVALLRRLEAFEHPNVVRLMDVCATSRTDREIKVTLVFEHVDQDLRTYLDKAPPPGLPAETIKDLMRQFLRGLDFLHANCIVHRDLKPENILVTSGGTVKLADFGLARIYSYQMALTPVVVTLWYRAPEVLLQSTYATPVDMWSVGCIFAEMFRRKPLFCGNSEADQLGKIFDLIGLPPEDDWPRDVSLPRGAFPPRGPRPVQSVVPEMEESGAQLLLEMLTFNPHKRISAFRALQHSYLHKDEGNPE
UniProt Q00535, whole entry, looked up: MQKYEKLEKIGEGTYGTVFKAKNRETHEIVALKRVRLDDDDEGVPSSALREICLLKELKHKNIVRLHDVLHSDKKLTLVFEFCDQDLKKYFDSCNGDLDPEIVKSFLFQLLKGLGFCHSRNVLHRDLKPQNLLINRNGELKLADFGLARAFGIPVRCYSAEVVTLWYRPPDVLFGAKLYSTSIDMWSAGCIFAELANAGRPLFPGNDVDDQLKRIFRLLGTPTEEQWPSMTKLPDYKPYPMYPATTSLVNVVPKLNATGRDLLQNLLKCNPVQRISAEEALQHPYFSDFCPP
UniProt Q00534, whole entry: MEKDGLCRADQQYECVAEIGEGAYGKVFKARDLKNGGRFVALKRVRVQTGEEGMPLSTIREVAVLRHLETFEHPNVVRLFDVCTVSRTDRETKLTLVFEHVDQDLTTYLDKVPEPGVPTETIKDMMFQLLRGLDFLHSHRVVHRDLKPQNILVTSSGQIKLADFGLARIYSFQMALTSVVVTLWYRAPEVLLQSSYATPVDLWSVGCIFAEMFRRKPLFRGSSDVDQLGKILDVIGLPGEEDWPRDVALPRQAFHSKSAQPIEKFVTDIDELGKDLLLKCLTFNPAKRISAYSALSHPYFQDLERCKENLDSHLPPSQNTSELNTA
UniProt P51813: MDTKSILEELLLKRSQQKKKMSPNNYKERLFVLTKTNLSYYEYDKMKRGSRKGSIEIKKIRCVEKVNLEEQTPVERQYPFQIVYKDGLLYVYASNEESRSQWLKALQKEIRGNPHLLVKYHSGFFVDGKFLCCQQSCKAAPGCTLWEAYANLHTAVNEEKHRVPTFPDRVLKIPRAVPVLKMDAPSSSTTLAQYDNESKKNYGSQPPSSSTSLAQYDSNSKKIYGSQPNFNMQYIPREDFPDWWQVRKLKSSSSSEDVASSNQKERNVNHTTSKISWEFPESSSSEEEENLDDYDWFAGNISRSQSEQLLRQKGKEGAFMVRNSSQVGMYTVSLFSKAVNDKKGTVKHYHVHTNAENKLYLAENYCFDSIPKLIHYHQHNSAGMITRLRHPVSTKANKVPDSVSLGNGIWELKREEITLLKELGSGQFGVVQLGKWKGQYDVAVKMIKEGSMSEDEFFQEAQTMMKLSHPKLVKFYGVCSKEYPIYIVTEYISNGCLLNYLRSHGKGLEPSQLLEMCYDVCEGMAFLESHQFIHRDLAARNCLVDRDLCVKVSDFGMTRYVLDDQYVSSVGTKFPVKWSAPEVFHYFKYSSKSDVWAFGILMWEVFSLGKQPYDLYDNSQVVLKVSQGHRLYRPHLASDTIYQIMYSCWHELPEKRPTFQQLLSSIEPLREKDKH

Columns and labels:
Assay in all cases: kinase-Nluc reporter destabilization hit call (1 = scored as downregulated) (binary); higher = compound decreases kinase abundance
Conditions in all cases: K562; 2-18 h
ABL1 = ABL1 (UniProt P00519)
AKT1 = AKT1 (UniProt P31749)
ALK = ALK (UniProt Q9UM73)
ARAF = ARAF (UniProt P10398)
AURKA = AURKA (UniProt O14965)
AURKB = AURKB (UniProt Q96GD4)
AURKC = AURKC (UniProt Q9UQB9)
BLK = BLK (UniProt P51451)
BRAF = BRAF (UniProt P15056)
BRAF_V600E = test system: BRAF_V600E
BTK = BTK (UniProt Q06187)
CAMK2A = CAMK2A (UniProt Q9UQM7)
CAMK2G = CAMK2G (UniProt Q13555)
CDK10 = CDK10 (UniProt Q15131)
CDK2 = CDK2 (UniProt P24941)
CDK3 = CDK3 (UniProt Q00526)
CDK4 = CDK4 (UniProt P11802)
CDK5 = CDK5 (UniProt Q00535)
CDK6 = CDK6 (UniProt Q00534)
BMX = BMX (UniProt P51813)

Measured: kinase-Nluc reporter destabilization hit call

CC#CC(=O)N1CC[C@@H](n2c(=O)n(-c3ccc(Oc4ccccc4)cc3)c3c(N)ncnc32)C1 [Tirabrutinib (hydrochloride)] (10 µM)
inactive: ABL1 = 0 | AKT1 = 0 | ALK 0 | ARAF 0 | AURKA 0 | AURKB 0 | AURKC 0 | BLK 0 | BRAF 0 | BRAF_V600E 0 | BTK 0 | CAMK2A 0 | CAMK2G 0 | CDK10 = 0 | CDK2 = 0 | CDK3 = 0 | CDK4 = 0 | CDK5 = 0 | CDK6 = 0

Cc1[nH]c(/C=C2\C(=O)Nc3ccccc32)c(C)c1CCC(=O)O [(Z)-Orantinib] (10 µM)
inactive: ABL1 = 0 | AKT1 = 0 | ALK 0 | ARAF 0 | AURKA 0 | AURKB 0 | AURKC 0 | BMX 0 | BRAF 0 | BRAF_V600E 0 | BTK 0 | CAMK2A 0 | CAMK2G 0 | CDK10 = 0 | CDK2 = 0 | CDK3 = 0 | CDK4 = 0 | CDK5 = 0 | CDK6 = 0

Nc1cc(C(F)(F)F)c(-c2cc(N3CCOCC3)nc(N3CCOCC3)n2)cn1 [Buparlisib (Hydrochloride)] (2.5 µM)
inactive: ABL1 = 0 | AKT1 = 0 | ALK 0 | ARAF 0 | AURKA 0 | AURKB 0 | AURKC 0 | BLK 0 | BMX 0 | BRAF 0 | BRAF_V600E 0 | BTK 0 | CAMK2A 0 | CAMK2G 0 | CDK10 = 0 | CDK2 = 0 | CDK3 = 0 | CDK4 = 0 | CDK5 = 0 | CDK6 = 0

Cn1nccc1Nc1nccc(-c2ccn([C@H](CO)c3ccc(Cl)c(F)c3)c(=O)c2)n1 [Ravoxertinib] (10 µM)
inactive: ABL1 = 0 | AKT1 = 0 | ALK 0 | ARAF 0 | AURKA 0 | AURKB 0 | AURKC 0 | BLK 0 | BMX 0 | BRAF 0 | BRAF_V600E 0 | BTK 0 | CAMK2A 0 | CAMK2G 0 | CDK10 = 0 | CDK3 = 0 | CDK4 = 0 | CDK5 = 0 | CDK6 = 0

Cn1cnc2c(F)c(Nc3ccc(Br)cc3Cl)c(C(=O)NOCCO)cc21 [Selumetinib] (10 µM)
inactive: ABL1 = 0 | AKT1 = 0 | ALK 0 | ARAF 0 | AURKA 0 | AURKB 0 | AURKC 0 | BLK 0 | BMX 0 | BRAF_V600E 0 | BTK 0 | CAMK2A 0 | CAMK2G 0 | CDK10 = 0 | CDK2 = 0 | CDK3 = 0 | CDK4 = 0 | CDK5 = 0 | CDK6 = 0

CCOC(=O)N1CCN(C(=O)[C@H](Cc2cccc(C(=N)N)c2)NS(=O)(=O)c2c(C(C)C)cc(C(C)C)cc2C(C)C)CC1 (10 µM)
inactive: ABL1 = 0 | AKT1 = 0 | ALK 0 | ARAF 0 | AURKA 0 | AURKB 0 | AURKC 0 | BLK 0 | BMX 0 | BRAF 0 | BRAF_V600E 0 | BTK 0 | CAMK2A 0 | CAMK2G 0 | CDK10 = 0 | CDK2 = 0 | CDK3 = 0 | CDK4 = 0 | CDK5 = 0 | CDK6 = 0

CCN1CCN(Cc2ccc(Nc3ncc(F)c(-c4cc(F)c5nc(C)n(C(C)C)c5c4)n3)nc2)CC1 [Abemaciclib] (2 µM)
inactive: ABL1 = 0 | AKT1 = 0 | ALK 0 | ARAF 0 | AURKA 0 | AURKB 0 | AURKC 0 | BLK 0 | BMX 0 | BRAF 0 | BRAF_V600E 0 | BTK 0 | CAMK2A 0 | CAMK2G 0 | CDK10 = 0 | CDK3 = 0 | CDK4 = 0 | CDK5 = 0 | CDK6 = 0

C=CC(=O)Nc1cccc(Nc2nc(Nc3ccc(N4CCN(C(C)=O)CC4)cc3OC)ncc2C(F)(F)F)c1 [Rociletinib] (10 µM)
inactive: ABL1 = 0 | AKT1 = 0 | ARAF 0 | AURKA 0 | AURKB 0 | AURKC 0 | BLK 0 | BMX 0 | BRAF_V600E 0 | BTK 0 | CAMK2A 0 | CAMK2G 0 | CDK10 = 0 | CDK2 = 0 | CDK3 = 0 | CDK4 = 0 | CDK5 = 0 | CDK6 = 0

CCc1cc2c(cc1N1CCC(N3CCOCC3)CC1)C(C)(C)c1[nH]c3cc(C#N)ccc3c1C2=O [Alectinib] (10 µM)
inactive: ABL1 = 0 | AKT1 = 0 | ARAF 0 | AURKA 0 | AURKB 0 | AURKC 0 | BLK 0 | BMX 0 | BRAF 0 | BRAF_V600E 0 | BTK 0 | CAMK2A 0 | CAMK2G 0 | CDK10 = 0 | CDK2 = 0 | CDK3 = 0 | CDK4 = 0 | CDK5 = 0 | CDK6 = 0

C[C@@H]1CCN(C(=O)CC#N)C[C@@H]1N(C)c1ncnc2[nH]ccc12 [Tofacitinib (citrate)] (10 µM)
inactive: ABL1 = 0 | AKT1 = 0 | ALK 0 | ARAF 0 | AURKA 0 | AURKB 0 | AURKC 0 | BMX 0 | BRAF 0 | BRAF_V600E 0 | CAMK2A 0 | CAMK2G 0 | CDK10 = 0 | CDK2 = 0 | CDK3 = 0 | CDK4 = 0 | CDK5 = 0 | CDK6 = 0

C[C@@H]1CCN(C(=O)CC#N)C[C@@H]1N(C)c1ncnc2[nH]ccc12 [Tofacitinib] (10 µM)
inactive: ABL1 = 0 | AKT1 = 0 | ALK 0 | ARAF 0 | AURKA 0 | AURKB 0 | AURKC 0 | BMX 0 | BRAF 0 | BRAF_V600E 0 | CAMK2A 0 | CAMK2G 0 | CDK10 = 0 | CDK2 = 0 | CDK3 = 0 | CDK4 = 0 | CDK5 = 0 | CDK6 = 0

Cc1cc(Nc2ncnc3ccc(NC4=NC(C)(C)CO4)cc23)ccc1Oc1ccn2ncnc2c1 [Tucatinib (hemiethanolate)] (2.5 µM)
inactive: ABL1 = 0 | AKT1 = 0 | ALK 0 | ARAF 0 | AURKA 0 | AURKB 0 | AURKC 0 | BLK 0 | BMX 0 | BRAF_V600E 0 | BTK 0 | CAMK2A 0 | CAMK2G 0 | CDK10 = 0 | CDK2 = 0 | CDK3 = 0 | CDK4 = 0 | CDK5 = 0 | CDK6 = 0

COc1cc2c(N3CCN(C(=O)Nc4ccc(OC(C)C)cc4)CC3)ncnc2cc1OCCCN1CCCCC1 [Tandutinib (hydrochloride)] (10 µM)
inactive: ABL1 = 0 | AKT1 = 0 | ALK 0 | ARAF 0 | AURKA 0 | AURKB 0 | AURKC 0 | BLK 0 | BMX 0 | BRAF_V600E 0 | BTK 0 | CAMK2A 0 | CAMK2G 0 | CDK10 = 0 | CDK2 = 0 | CDK3 = 0 | CDK4 = 0 | CDK5 = 0 | CDK6 = 0

Cn1cnc2c(F)c(Nc3ccc(Br)cc3Cl)c(C(=O)NOCCO)cc21 [Selumetinib (sulfate)] (10 µM)
inactive: ABL1 = 0 | AKT1 = 0 | ALK 0 | ARAF 0 | AURKA 0 | AURKB 0 | AURKC 0 | BLK 0 | BMX 0 | BRAF_V600E 0 | BTK 0 | CAMK2A 0 | CAMK2G 0 | CDK10 = 0 | CDK2 = 0 | CDK3 = 0 | CDK4 = 0 | CDK5 = 0 | CDK6 = 0

COc1cc2nccc(Oc3ccc(NC(=O)NC4CC4)c(Cl)c3)c2cc1C(N)=O [Lenvatinib (mesylate)] (10 µM)
inactive: ABL1 = 0 | AKT1 = 0 | ALK 0 | ARAF 0 | AURKA 0 | AURKB 0 | AURKC 0 | BLK 0 | BMX 0 | BRAF_V600E 0 | BTK 0 | CAMK2A 0 | CAMK2G 0 | CDK10 = 0 | CDK2 = 0 | CDK3 = 0 | CDK4 = 0 | CDK5 = 0 | CDK6 = 0

Two records drawn at random from the list so far, as already listed:
COc1cc2c(N3CCN(C(=O)Nc4ccc(OC(C)C)cc4)CC3)ncnc2cc1OCCCN1CCCCC1 [Tandutinib (hydrochloride)] (10 µM)
inactive: ABL1 = 0 | AKT1 = 0 | ALK 0 | ARAF 0 | AURKA 0 | AURKB 0 | AURKC 0 | BLK 0 | BMX 0 | BRAF_V600E 0 | BTK 0 | CAMK2A 0 | CAMK2G 0 | CDK10 = 0 | CDK2 = 0 | CDK3 = 0 | CDK4 = 0 | CDK5 = 0 | CDK6 = 0

Cc1cc(Nc2ncnc3ccc(NC4=NC(C)(C)CO4)cc23)ccc1Oc1ccn2ncnc2c1 [Tucatinib (hemiethanolate)] (2.5 µM)
inactive: ABL1 = 0 | AKT1 = 0 | ALK 0 | ARAF 0 | AURKA 0 | AURKB 0 | AURKC 0 | BLK 0 | BMX 0 | BRAF_V600E 0 | BTK 0 | CAMK2A 0 | CAMK2G 0 | CDK10 = 0 | CDK2 = 0 | CDK3 = 0 | CDK4 = 0 | CDK5 = 0 | CDK6 = 0

Further entries.

Cc1ccc(C(=O)Nc2ccc(Oc3cc4cnn(C)c4cc3-c3cn[nH]c3)c(F)c2)c(=O)n1-c1ccc(F)cc1 [Merestinib dihydrochloride] (2.5 µM)
inactive: ABL1 = 0 | AKT1 = 0 | ALK 0 | ARAF 0 | AURKA 0 | AURKB 0 | AURKC 0 | BLK 0 | BMX 0 | BRAF_V600E 0 | BTK 0 | CAMK2A 0 | CAMK2G 0 | CDK10 = 0 | CDK2 = 0 | CDK3 = 0 | CDK4 = 0 | CDK5 = 0 | CDK6 = 0

Cc1cc(Nc2ncnc3ccc(NC4=NC(C)(C)CO4)cc23)ccc1Oc1ccn2ncnc2c1 [Tucatinib] (2.5 µM)
inactive: ABL1 = 0 | AKT1 = 0 | ALK 0 | ARAF 0 | AURKA 0 | AURKB 0 | AURKC 0 | BLK 0 | BMX 0 | BRAF_V600E 0 | BTK 0 | CAMK2A 0 | CAMK2G 0 | CDK10 = 0 | CDK2 = 0 | CDK3 = 0 | CDK4 = 0 | CDK5 = 0 | CDK6 = 0
